Data: PubChem BioAssay AID2685 (National Center for Advancing Translational Sciences (NCATS), 2010)
The list shows a part of the results. These are further read-outs of the screen, such as a control signal, another cell line or another target. No call is given for them. Most of these compounds were active or inconclusive in the main read-out, so they are no random draw. The note in brackets gives the kind of curve behind each potency; many fits are weak.

Assay: qHTS Assay for Lipid Storage Modulators in Drosophila S3 Cells;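 for cell number change: cells counted by Cell Tracker Red CMTPX staining in the red channel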
Conditions: BODIPY lipid droplet fluorescence, 18-24 h; for cell number change: measured here: cell count max response, cells fed with added oleic acid
Procedure, shortened: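 Drosophila S3 cells got compounds at several concentrations plus oleic acid (400 uM solution). Laser-scanning cytometry with 488 nm excitation read lipid droplets at 500-530 nm and cells at 575-640 nm. Percent activity was relative to 20 uM Triacsin C.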

[1] = measured here: cell number channel AC50, cells fed with added oleic acid
[2] = measured here: lipid fluorescence (Fed channel) AC50, cells fed with added oleic acid

Row | Compound | cell number change [%] | AC50 [1] | AC50 [2]
1 | COc1cc2c(cc1OC)C(c1cccc([N+](=O)[O-])c1)N(C(=O)CCC(=O)O)CC2 (stereo not given) | 54.1 | 25.9 µM [rising, partial curve] | 
2 | O=c1[nH]c(=O)n(C2CCCO2)cc1Br (stereo not given) | -5.14 |  | 0.0058 µM [falling, full curve, poor fit]
3 | CCC(C(=O)NC1CCCCCC1)n1nc(C)c2c(C)n(-c3ccccc3)nc2c1=O (stereo not given) | 1.18 | 6.51 µM [rising, single point] | 6.51 µM [rising, single point]
4 | O=C(O)c1ccccc1SCC(=O)N1c2ccccc2Sc2ccccc21 | -8.8 |  | 8.2 µM [falling, partial curve]
5 | COC(=O)C1=C(NC(=O)c2ccc(Br)cc2)CCS1 | -14.8 |  | 1.64 µM [falling, single point]
6 | O=C(CN1C(=O)c2ccccc2S1(=O)=O)c1ccc(F)c(F)c1 | 1.69 |  | 
7 | Cn1nnnc1SCC(=O)Nc1c(Cl)cccc1Cl | -3.03 | 0.164 µM [falling, full curve, poor fit] | 
8 | CC1Sc2ccc(S(=O)(=O)CCC(=O)N3CCN(c4cccc(Cl)c4)CC3)cc2NC1=O (stereo not given) | -54.6 | 29.1 µM [falling, single point] | 29.1 µM [falling, single point]
9 | O=S(=O)(NC1CCCC1)c1cc(F)ccc1F | -4.32 |  | 
10 | CCOC(=O)CN(C(=O)CNC(=O)c1ccco1)C(C(=O)NC1CCCCC1)c1cccc(OC)c1 (stereo not given) | 0.5 |  | 4.11 µM [falling, partial curve, poor fit]
11 | Cc1ccc(S(=O)(=O)N2CCCCC2)cc1NC(=O)CCN1C(=O)C2CC=CCC2C1=O (stereo not given) | 13 |  | 2.06 µM [rising, partial curve, poor fit]
12 | Cc1ccc(CNC(=O)Cn2nnc(C(=O)Nc3cccc(C)c3C)c2N)cc1 |  |  | 5.8 µM [rising, single point]
13 | COc1ccc(C)cc1NC(=O)C(CCS(C)(=O)=O)NC(C)=O (stereo not given) | -42.1 | 25.9 µM [falling, single point] | 25.9 µM [falling, partial curve, poor fit]
14 | CC(=O)c1ccc(N(CC(=O)NCCc2ccccc2)C(=O)c2csnn2)cc1 | 23.8 |  | 1.16 µM [falling, single point]
15 | C=C1SC(=Nc2ccccc2Cl)N(C(=O)c2sc3ccccc3c2Cl)C1(C)C | 43.3 | 16.4 µM [rising, partial curve, poor fit] | 29.1 µM [rising, single point]
16 | COc1ccc(NCc2nnc(SCC(=O)N3CCCc4ccccc43)o2)cc1 | 41.2 | 5.17 µM [rising, partial curve, poor fit] | 
17 | CN(CCO)CCOCCOc1cccc2ccccc12 | -27.7 |  | 
18 | O=C(CCNC(=O)c1ccccc1Cl)Nc1nccs1 | -9.26 | 5.17 µM [falling, single point] | 
19 | COc1cc(C)c(CNc2cccc(C)c2)cc1C | 7.55 | 0.731 µM [falling, single point] | 0.411 µM [falling, partial curve, poor fit]
20 | Cc1ccc(S(=O)(=O)N2CCN(c3ccccc3)CC2)cc1C(=O)NC1CCCCC1 | 9.19 |  | 3.26 µM [falling, partial curve]

Row | Compound | cell number change [%] | AC50 [1] | AC50 [2]
21 | Cn1c(N)c(C(=O)COC(=O)Cn2cc(C(F)(F)F)ccc2=O)c(=O)n(C)c1=O | 8.66 |  | 
22 | COC(=O)[C@@H]1C[C@H]2CC[C@H](O)C[C@H]2N1Cc1ccc(Cl)cc1 | 24.5 |  | 29.1 µM [rising, partial curve]
23 | CC(C)(C)C1CCC(OC(=O)CN2CCOCC2)CC1 (stereo not given) | -0.283 |  | 1.3 µM [rising, full curve]
24 | COc1ccc(CNC(=O)Cn2nc([N+](=O)[O-])cc2C)cc1 | -16.1 |  | 6.51 µM [rising, partial curve, poor fit]
25 | CCN1CCCC1CNC(=O)CCc1nc(-c2ccc(C)cc2)no1 (stereo not given) | -12.7 | 0.00517 µM [falling, full curve, poor fit] | 
26 | S=c1[nH]nc(C2CCCCC2)n1/N=C/c1ccccc1 | -29.2 |  | 
27 | COC(=O)/C(=C1/Oc2cc(C)oc(=O)c2S1)C(F)(F)F | -34.6 | 5.17 µM [falling, partial curve] | 5.8 µM [falling, partial curve]
28 | O=c1c(Cc2ccc(Cl)cc2Cl)c(O)ccn1CCCN1CCOCC1 | -23.5 |  | 35.5 µM [falling, single point]
29 | CC(C)CC1(C(=O)O)NC(c2ccccc2O)C2C(=O)N(C(C)C)C(=O)C21 (stereo not given) | 9.39 |  | 2.06 µM [falling, partial curve]
30 | O=C(NC1CCCC1)C(=O)N(Cc1cccnc1)C(C(=O)NCc1ccco1)c1ccccc1F (stereo not given) | 19 |  | 9.2 µM [rising, partial curve, poor fit]
31 | Cc1c(C(=O)NCc2cccnc2)oc2ccc(S(=O)(=O)N3CC(C)CC(C)C3)cc12 (stereo not given) | 63.1 | 2.91 µM [rising, partial curve] | 0.731 µM [rising, full curve]
32 | CCCn1c(N2CCN(C(=O)Nc3ccc(Cl)cc3)CC2)nc2ccccc21 | -25.5 |  | 29.1 µM [falling, single point]
33 | CC(C1CC1)N(C(=O)NC1CCS(=O)(=O)C1)c1ccccc1 (stereo not given) | 6.71 |  | 3.66 µM [falling, full curve]
34 | COC(=O)c1cc(S(=O)(=O)N2CCCCCC2)cn1C | -5.61 |  | 2.31 µM [falling, full curve]
35 | COc1ccc(-c2cn(CCC(=O)NCc3ccc(C)cc3)c(-c3ccncc3)n2)cc1 | 5.69 |  | 29.1 µM [falling, single point]
36 | O=C(COc1ccc(-c2ccccc2)cc1)N1CCN(S(=O)(=O)Cc2ccccc2)CC1 | 6.34 |  | 0.461 µM [rising, single point]
37 | Cc1cc(NC(=O)CSc2nc3ccccc3c(=O)n2-c2ccccc2)no1 | 18.7 |  | 4.61 µM [rising, partial curve, poor fit]
38 | COC(=O)c1c(C)[nH]c(-c2csc(N)n2)c1C |  | 0.58 µM [rising, partial curve] | 4.61 µM [rising, full curve, poor fit]
39 | CN(C)S(=O)(=O)c1cccc(NC(=O)c2cc(-c3cccs3)nc3ccccc23)c1 | 20.1 |  | 6.51 µM [rising, partial curve]
40 | CCOC(=O)C1=C(C)NC(=O)NC1c1ccc(OC)c(Cl)c1 (stereo not given) | -0.587 |  | 

Row | Compound | cell number change [%] | AC50 [1] | AC50 [2]
41 | CCOc1ccccc1N1CCN(C(=S)NCc2ccccc2)CC1 |  | 0.0731 µM [rising, full curve, poor fit] | 
42 | Cc1cc(OCC(=O)N2CCOCC2)ccc1NC(=O)C1CCCCC1 | 9.49 | 2.06 µM [rising, partial curve] | 
43 | Cn1c(SCc2ccc(C(C)(C)C)cc2)nnc1C1COc2ccccc2O1 (stereo not given) | -32.9 | 29.1 µM [falling, single point] | 16.4 µM [falling, single point]
44 | O=C(CSc1ncccn1)N/N=C/c1ccc(OC2CSC2)cc1 | 39.1 | 25.9 µM [rising, single point] | 
45 | CN(C)CCCNc1ncnc2c1cnn2Cc1ccccc1Cl | 8.33 |  | 
46 | Cc1nc(NC2=NCN(Cc3cccnc3)CN2)nc2c(C)cccc12 | -2.23 |  | 20.6 µM [falling, partial curve]
47 | COc1ccc(C(=O)Nc2nncs2)c(OC)c1 | -0.759 |  | 4.61 µM [rising, full curve]
48 | Cc1nn(-c2ncc(C(F)(F)F)cc2Cl)c(=O)n1-c1ccc(F)cc1 | -0.57 | 2.59 µM [rising, single point] | 4.61 µM [rising, single point]
49 | Cc1ccc(C)c(OCC(O)CN2CCC(Cc3ccccc3)CC2)c1 (stereo not given) | -11.8 |  | 
50 | O=C(CN1CCOCC1)Nc1cc(C(F)(F)F)ccc1Cl | -19.9 | 4.11 µM [falling, partial curve, poor fit] | 
51 | Cc1cc(N/N=C\c2ccc(Br)cc2)nc(-n2nc(C)cc2C)n1 | -66.6 | 20.6 µM [falling, partial curve] | 18.4 µM [falling, partial curve]
52 | CCOC(=O)C1(CCOc2ccccc2)CCN(Cc2ccc(O)c(Cl)c2)CC1 | 18.9 |  | 0.00461 µM [falling, full curve, poor fit]
53 | CC(=O)N1CCN(S(=O)(=O)c2cccc(C(=O)N(Cc3ccccc3)c3cccc(C)c3)c2)CC1 | 39 | 3.66 µM [rising, partial curve, poor fit] | 
54 | CCOc1ccc(CCNC(=O)c2ccc3nc(CC)c(CC)nc3c2)cc1 | 48 | 29.1 µM [rising, single point] | 29.1 µM [rising, single point]
55 | COCCn1c(SCC(=O)NCc2ccc3c(c2)OCO3)nnc1-c1c[nH]c2ccccc12 | 34.7 | 5.8 µM [rising, full curve, poor fit] | 9.2 µM [rising, partial curve, poor fit]
56 | C=CCNc1nnc(Cc2ccc(C(C)C)cc2)c(=O)[nH]1 |  |  | 0.0366 µM [rising, full curve, poor fit]
57 | Cc1cc(C)c(C#N)c(Sc2nnnn2-c2ccccc2)n1 |  |  | 5.17 µM [rising, partial curve]
58 | O=C(/C=C/c1ccco1)Nc1ccccc1C(=O)Nc1cccc(C(=O)O)c1 | 17 |  | 

Structural class: the entries above with bromine (3)
Row | Compound | cell number change [%] | AC50 [1] | AC50 [2]
2 | O=c1[nH]c(=O)n(C2CCCO2)cc1Br (stereo not given) | -5.14 |  | 0.0058 µM [falling, full curve, poor fit]
5 | COC(=O)C1=C(NC(=O)c2ccc(Br)cc2)CCS1 | -14.8 |  | 1.64 µM [falling, single point]
51 | Cc1cc(N/N=C\c2ccc(Br)cc2)nc(-n2nc(C)cc2C)n1 | -66.6 | 20.6 µM [falling, partial curve] | 18.4 µM [falling, partial curve]
